Data as given in publication PMC11324726, “Structural dynamics of protein-protein association involved in the light-induced transition of Avena sativa LOV2 protein” (Nature Communications, 2024).
Results are given in words; binding and its absence hold for the method and conditions named. Some entries that bind do so weakly or less than the wild type. Each block holds one molecule with its values, some of them ahead of it.

Tests used:
[1] = biological target: AsLOV2 (residue 404-546) E475K mutant (Avena sativa) (UniProt O49003); assay: SEC; light state; monomer and dimer fractions by elution volume; conditions in Supplementary Note 3 and Supplementary Methods (not shown); both purified
[2] = biological target: AsLOV2 (residue 404-546) K413E mutant (Avena sativa) (UniProt O49003); assay: as above
[3] = biological target: AsLOV2 A'α and Jα deletion construct (residue 413-520) (Avena sativa) (UniProt O49003); assay: SEC; dark state; monomer and dimer fractions by elution volume; conditions in Supplementary Note 3 and Supplementary Methods (not shown); both purified
[4] = biological target: AsLOV2 A'α helix deletion construct (residue 413-546) (Avena sativa) (UniProt O49003); assay: as above
[5] = biological target: AsLOV2 Jα helix deletion construct (residue 404-520) (Avena sativa) (UniProt O49003); assay: as above
[6] = biological target: Avena sativa phototropin 1 LOV2 domain with A'α and Jα helices (residue 404-546), wild type (Avena sativa) (UniProt O49003); assay: static SAXS; in solution; light state (LED light) compared with the ground state; ab initio shape reconstruction; both purified

Molecule: AsLOV2 (residue 404-546) E475K mutant (from UniProt O49003 404-546) (domain or fragment)
binding [1]: binds

Molecule: AsLOV2 A'α and Jα deletion construct (residue 413-520) (from UniProt O49003 413-520) (domain or fragment)
binding [3]: binds

Molecule: AsLOV2 Jα helix deletion construct (residue 404-520) (from UniProt O49003 404-520) (domain or fragment)
binding [5]: binds

B1: Avena sativa phototropin 1 LOV2 domain with A'α and Jα helices (residue 404-546), wild type (domain or fragment, UniProt O49003 404-546, looked up)
chain: LATTLERIEKNFVITDPRLPDNPIIFASDSFLQLTEYSREEILGRNCRFLQGPETDRATVRKIRDAIDNQTEVTVQLINYTKSGKKFWNLFHLQPMRDQKGDVQYFIGVQLDGTEHVRDAAEREGVMLIKKTAENIDEAAKEL
notes: Avena sativa phototropin 1 (AsPhot1), A'α helix (404-412) + LOV2 core (413-520) + Jα helix (521-546), residues 404-546; Carries FMN as chromophore; in the light state a Cys-FMN photoadduct is formed; also called AsLOV2; AsLOV2 WT
binding [6]: binds

Second part, the molecule after the results:

binding [2]: binds
Molecule: AsLOV2 (residue 404-546) K413E mutant (from UniProt O49003 404-546) (domain or fragment)

binding [4]: binds
Molecule: AsLOV2 A'α helix deletion construct (residue 413-546) (from UniProt O49003 413-546) (domain or fragment)
